{"source": "PubChem BioAssay AID1224830 (NIAID, 2016)", "aim": "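Genes whose knock-down alters the TNF-alpha reporter response to LPS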 (primary screen)", "cells": "human THP-1 monocytic leukaemia cells, TNF dual-luciferase reporter clone, PMA-differentiated to macrophage-like cells", "knock-down reagent": "siRNA pool against human genes, 50 nM", "time to read-out": "LPS for 4 h, given about 3 days after siRNA transfection", "conditions": "bacterial LPS (TLR4 ligand), 10 ng/ml", "read-out": "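Ratio of firefly to renilla light, scaled to the plate median and expressed as a robust z-score per replicate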", "scale": "TNF reporter robust z-score: higher = stronger TNF reporter response to LPS", "hit rule": "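a well is active when its z-score exceeds 2.8 or falls below -1.5; control wells carry no call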", "note": "In all, the deposit lists about 18,000 reagents; shown is a random part of them. About 2,900 of them (16%) count as active. 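Calls are made per well; low scores hint the gene aids the LPS response, high scores that it dampens it.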 Unmarked entries are inactive. Repeated entries: four replicate wells of each siRNA pool. Reagent sequences are not shown."}
{"target": "VN1R1", "TNF reporter robust z-score": -1.28}
{"target": "VN1R1", "TNF reporter robust z-score": -0.61}
{"target": "VN1R1", "TNF reporter robust z-score": -0.91}
{"target": "VN1R1", "TNF reporter robust z-score": -0.93}
{"target": "NUDCD2", "TNF reporter robust z-score": -0.05}
{"target": "NUDCD2", "TNF reporter robust z-score": -0.54}
{"target": "NUDCD2", "TNF reporter robust z-score": 0.2}
{"target": "NUDCD2", "TNF reporter robust z-score": 0.08}
{"target": "USP35", "TNF reporter robust z-score": 1.66}
{"target": "USP35", "TNF reporter robust z-score": 2.05}
{"target": "USP35", "TNF reporter robust z-score": 1.55}
{"target": "USP35", "TNF reporter robust z-score": 2.57}
{"target": "LIPE", "TNF reporter robust z-score": 2.03}
{"target": "LIPE", "TNF reporter robust z-score": 2.39}
{"target": "LIPE", "TNF reporter robust z-score": 1.35}
{"target": "LIPE", "TNF reporter robust z-score": 2.45}
{"target": "GBP4", "TNF reporter robust z-score": -0.55}
{"target": "GBP4", "TNF reporter robust z-score": -0.15}
{"target": "GBP4", "TNF reporter robust z-score": -0.33}
{"target": "GBP4", "TNF reporter robust z-score": -0.64}
{"target": "EXOSC9", "TNF reporter robust z-score": -0.95}
{"target": "EXOSC9", "TNF reporter robust z-score": -0.15}
{"target": "EXOSC9", "TNF reporter robust z-score": -0.28}
{"target": "EXOSC9", "TNF reporter robust z-score": -0.64}
{"target": "TRIM22", "TNF reporter robust z-score": -0.39}
{"target": "TRIM22", "TNF reporter robust z-score": -0.71}
{"target": "TRIM22", "TNF reporter robust z-score": 0.05}
{"target": "TRIM22", "TNF reporter robust z-score": 1.37}
{"target": "DUSP28", "TNF reporter robust z-score": 1.1}
{"target": "DUSP28", "TNF reporter robust z-score": 1.09}
{"target": "DUSP28", "TNF reporter robust z-score": -0.29}
{"target": "DUSP28", "TNF reporter robust z-score": 1.37}
{"target": "CAPN12", "TNF reporter robust z-score": -1.43}
{"target": "CAPN12", "TNF reporter robust z-score": -1.29}
{"target": "CAPN12", "TNF reporter robust z-score": -1.11}
{"target": "CAPN12", "TNF reporter robust z-score": -1.35}
{"target": "TEKT1", "TNF reporter robust z-score": 1.86}
{"target": "TEKT1", "TNF reporter robust z-score": 0.31}
{"target": "TEKT1", "TNF reporter robust z-score": 1.5}
{"target": "TEKT1", "TNF reporter robust z-score": 0.78}
{"target": "MSX2", "TNF reporter robust z-score": -0.75}
{"target": "MSX2", "TNF reporter robust z-score": -0.47}
{"target": "MSX2", "TNF reporter robust z-score": -1.33}
{"target": "MSX2", "TNF reporter robust z-score": -1.04}
{"target": "SLC67A2", "TNF reporter robust z-score": "2.8 (active)"}
{"target": "SLC67A2", "TNF reporter robust z-score": 1.98}
{"target": "SLC67A2", "TNF reporter robust z-score": -0.43}
{"target": "SLC67A2", "TNF reporter robust z-score": 0.45}

A run of entries from the list above, as a working copy:
{"target": "LIPE", "TNF reporter robust z-score": 2.03}
{"target": "LIPE", "TNF reporter robust z-score": 2.39}
{"target": "LIPE", "TNF reporter robust z-score": 1.35}
{"target": "LIPE", "TNF reporter robust z-score": 2.45}
{"target": "GBP4", "TNF reporter robust z-score": -0.55}
{"target": "GBP4", "TNF reporter robust z-score": -0.15}
